Measured values reported in article PMC8101327.
Results are given in words; binding and its absence hold for the method and conditions named. Binding seen in cells or lysates may run through a third protein. Some binding calls cover weakened binding; strength is not graded here.

The chains behind the UniProt entries cited, without tags or fusion partners.
UniProt Q05397: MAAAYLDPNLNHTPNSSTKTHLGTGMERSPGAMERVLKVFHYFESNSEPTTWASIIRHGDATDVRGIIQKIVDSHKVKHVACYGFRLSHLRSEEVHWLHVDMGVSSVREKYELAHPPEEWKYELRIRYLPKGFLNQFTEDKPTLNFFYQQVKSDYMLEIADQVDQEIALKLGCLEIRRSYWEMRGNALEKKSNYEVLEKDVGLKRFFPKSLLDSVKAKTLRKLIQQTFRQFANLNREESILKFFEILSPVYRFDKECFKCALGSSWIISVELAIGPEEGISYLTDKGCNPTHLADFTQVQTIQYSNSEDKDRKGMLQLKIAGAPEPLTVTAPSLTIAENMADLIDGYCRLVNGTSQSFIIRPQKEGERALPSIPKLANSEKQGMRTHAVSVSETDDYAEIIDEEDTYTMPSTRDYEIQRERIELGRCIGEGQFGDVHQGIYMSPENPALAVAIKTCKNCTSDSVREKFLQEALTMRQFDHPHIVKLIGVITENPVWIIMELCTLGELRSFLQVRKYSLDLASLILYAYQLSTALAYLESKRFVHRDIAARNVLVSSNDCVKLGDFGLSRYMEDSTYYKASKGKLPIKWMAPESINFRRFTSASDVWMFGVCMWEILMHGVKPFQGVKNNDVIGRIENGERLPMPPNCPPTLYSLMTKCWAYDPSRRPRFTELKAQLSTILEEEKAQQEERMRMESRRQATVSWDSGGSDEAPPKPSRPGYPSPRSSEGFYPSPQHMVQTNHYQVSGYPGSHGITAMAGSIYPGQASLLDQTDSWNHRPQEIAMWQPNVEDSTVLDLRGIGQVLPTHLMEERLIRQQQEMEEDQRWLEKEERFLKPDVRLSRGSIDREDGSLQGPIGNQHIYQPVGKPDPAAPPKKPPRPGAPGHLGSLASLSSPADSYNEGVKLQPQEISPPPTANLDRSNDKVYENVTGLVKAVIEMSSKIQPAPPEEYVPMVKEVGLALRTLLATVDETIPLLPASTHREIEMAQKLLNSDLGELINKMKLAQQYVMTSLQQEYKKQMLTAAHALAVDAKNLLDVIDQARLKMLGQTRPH

Target: T1, Brain and Acute Leukemia, Cytoplasmic (BAALC) (human) (UniProt Q8WXS3)
T1 sequence: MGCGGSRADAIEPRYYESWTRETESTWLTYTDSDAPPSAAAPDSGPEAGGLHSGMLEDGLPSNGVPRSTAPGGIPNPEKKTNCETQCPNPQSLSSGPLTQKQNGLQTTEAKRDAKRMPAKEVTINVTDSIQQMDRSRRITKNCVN
Assay: co-IP; MCF-7-EV and MCF-7-BAALC cell lysates (500 µg) incubated with BAALC antibody, FAK antibody or IgG control and Protein A/G agarose overnight at 4°C; beads washed 3 times in TBST; BAALC and FAK detected by western blotting

- binding: binds
Substance: focal adhesion kinase (FAK) (from UniProt Q05397 1-1052)
